Data: the supplement of paper PMC10849652
This is one part of the list.

The chains behind the UniProt entries cited, without tags or fusion partners. Where a name states a change or a piece, a line headed by the entry shows the natural chain unless it says otherwise.
UniProt P51114, whole entry, looked up: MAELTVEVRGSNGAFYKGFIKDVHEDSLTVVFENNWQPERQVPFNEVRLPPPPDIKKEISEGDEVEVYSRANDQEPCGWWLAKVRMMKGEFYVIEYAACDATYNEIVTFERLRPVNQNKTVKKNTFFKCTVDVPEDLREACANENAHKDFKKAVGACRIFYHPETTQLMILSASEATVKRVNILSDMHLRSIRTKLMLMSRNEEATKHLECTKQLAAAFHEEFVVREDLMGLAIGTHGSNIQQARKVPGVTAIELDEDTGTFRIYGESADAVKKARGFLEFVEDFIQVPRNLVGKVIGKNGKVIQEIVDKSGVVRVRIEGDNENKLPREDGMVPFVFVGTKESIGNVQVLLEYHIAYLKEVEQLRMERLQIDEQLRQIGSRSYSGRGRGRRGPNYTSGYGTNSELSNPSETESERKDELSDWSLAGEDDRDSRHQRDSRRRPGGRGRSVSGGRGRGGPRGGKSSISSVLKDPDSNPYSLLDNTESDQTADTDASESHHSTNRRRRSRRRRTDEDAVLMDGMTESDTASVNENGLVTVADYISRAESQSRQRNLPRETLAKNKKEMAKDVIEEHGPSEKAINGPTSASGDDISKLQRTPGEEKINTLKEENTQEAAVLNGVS
UniProt Q10471: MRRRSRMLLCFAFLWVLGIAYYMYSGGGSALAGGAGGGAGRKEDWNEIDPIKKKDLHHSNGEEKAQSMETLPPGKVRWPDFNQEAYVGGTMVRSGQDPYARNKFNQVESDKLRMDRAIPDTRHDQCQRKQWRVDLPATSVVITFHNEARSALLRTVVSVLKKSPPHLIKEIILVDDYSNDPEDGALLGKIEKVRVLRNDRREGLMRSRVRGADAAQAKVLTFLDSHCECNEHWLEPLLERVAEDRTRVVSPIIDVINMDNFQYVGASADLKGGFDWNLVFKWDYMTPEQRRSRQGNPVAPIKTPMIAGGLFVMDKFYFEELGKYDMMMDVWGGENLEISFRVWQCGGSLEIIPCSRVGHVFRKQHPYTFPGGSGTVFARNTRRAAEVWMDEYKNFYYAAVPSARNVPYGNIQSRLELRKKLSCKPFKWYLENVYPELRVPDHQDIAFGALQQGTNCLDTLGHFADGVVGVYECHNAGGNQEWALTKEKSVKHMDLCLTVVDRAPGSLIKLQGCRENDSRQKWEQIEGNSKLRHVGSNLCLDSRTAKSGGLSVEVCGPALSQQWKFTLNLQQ
UniProt Q8WXI9: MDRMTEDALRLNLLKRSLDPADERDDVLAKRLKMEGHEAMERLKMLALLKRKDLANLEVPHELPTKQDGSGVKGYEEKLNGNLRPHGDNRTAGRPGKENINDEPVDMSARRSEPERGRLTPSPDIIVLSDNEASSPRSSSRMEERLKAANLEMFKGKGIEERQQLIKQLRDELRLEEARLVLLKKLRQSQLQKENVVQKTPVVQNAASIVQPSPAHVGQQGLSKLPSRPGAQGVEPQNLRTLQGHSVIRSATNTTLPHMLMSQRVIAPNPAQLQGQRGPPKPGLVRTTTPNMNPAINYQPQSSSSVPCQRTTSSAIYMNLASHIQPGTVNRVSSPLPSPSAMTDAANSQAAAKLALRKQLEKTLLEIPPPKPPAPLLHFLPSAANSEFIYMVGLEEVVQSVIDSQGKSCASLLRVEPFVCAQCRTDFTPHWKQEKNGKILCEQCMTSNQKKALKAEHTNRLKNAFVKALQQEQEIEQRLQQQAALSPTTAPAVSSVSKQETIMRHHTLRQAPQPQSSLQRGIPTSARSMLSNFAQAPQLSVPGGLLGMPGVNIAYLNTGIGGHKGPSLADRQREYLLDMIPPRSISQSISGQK
UniProt P55789: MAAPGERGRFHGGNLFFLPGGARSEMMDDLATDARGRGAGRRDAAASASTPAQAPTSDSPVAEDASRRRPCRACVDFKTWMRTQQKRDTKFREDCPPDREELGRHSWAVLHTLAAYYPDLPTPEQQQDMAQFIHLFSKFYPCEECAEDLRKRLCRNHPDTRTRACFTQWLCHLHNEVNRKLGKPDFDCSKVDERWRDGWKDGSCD
UniProt Q9UQC2, whole entry, looked up: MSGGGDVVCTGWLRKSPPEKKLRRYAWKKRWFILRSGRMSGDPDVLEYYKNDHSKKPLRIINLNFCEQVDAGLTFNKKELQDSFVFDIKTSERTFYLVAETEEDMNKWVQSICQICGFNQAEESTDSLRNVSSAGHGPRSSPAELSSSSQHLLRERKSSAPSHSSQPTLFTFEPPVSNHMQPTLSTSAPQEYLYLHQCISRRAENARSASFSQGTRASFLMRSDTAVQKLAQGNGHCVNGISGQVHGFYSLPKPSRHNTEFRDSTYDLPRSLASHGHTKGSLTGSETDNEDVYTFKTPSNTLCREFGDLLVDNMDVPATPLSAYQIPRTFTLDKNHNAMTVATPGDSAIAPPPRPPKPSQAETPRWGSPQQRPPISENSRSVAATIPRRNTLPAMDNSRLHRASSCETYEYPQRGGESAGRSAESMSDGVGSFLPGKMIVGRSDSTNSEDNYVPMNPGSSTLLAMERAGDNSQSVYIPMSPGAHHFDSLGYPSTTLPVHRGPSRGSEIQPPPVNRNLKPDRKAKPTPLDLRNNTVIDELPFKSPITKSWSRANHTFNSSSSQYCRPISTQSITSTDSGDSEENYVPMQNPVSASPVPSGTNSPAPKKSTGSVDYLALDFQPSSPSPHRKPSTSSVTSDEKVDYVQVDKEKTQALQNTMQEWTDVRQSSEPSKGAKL
UniProt P60520, whole entry, looked up: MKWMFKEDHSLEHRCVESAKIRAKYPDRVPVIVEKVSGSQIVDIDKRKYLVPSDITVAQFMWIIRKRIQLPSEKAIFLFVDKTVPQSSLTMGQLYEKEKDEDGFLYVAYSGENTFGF
UniProt P15976: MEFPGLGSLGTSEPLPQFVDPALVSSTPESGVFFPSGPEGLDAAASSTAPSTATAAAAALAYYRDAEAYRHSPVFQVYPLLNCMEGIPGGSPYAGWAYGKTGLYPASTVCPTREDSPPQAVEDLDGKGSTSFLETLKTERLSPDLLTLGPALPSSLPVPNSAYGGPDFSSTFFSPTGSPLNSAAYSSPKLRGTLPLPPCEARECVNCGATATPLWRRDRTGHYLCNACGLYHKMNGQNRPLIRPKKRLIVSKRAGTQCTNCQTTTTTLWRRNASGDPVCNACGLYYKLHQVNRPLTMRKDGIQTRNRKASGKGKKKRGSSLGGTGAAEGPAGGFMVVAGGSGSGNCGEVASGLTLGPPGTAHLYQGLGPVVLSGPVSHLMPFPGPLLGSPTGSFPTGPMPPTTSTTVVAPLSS
UniProt P54803: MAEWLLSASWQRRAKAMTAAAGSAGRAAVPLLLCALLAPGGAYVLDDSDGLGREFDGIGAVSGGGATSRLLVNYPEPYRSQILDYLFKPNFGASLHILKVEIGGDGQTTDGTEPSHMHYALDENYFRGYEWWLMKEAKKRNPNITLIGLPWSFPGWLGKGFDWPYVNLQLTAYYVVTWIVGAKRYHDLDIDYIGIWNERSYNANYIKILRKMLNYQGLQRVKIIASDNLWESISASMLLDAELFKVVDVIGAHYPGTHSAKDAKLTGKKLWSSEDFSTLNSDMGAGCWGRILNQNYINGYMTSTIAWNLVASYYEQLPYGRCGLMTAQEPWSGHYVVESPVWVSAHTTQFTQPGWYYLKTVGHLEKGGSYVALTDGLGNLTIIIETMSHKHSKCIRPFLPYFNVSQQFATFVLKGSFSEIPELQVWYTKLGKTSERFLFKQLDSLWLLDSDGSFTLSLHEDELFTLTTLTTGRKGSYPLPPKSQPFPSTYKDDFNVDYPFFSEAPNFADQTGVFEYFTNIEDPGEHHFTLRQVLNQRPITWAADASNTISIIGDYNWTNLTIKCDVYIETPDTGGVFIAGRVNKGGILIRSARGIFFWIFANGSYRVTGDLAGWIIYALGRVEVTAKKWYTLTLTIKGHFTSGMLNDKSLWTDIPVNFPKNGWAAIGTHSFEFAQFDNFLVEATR

Tests used:
Experiment in all cases: log2 fold change, soluble protein after heating vs DMSO (PISA); higher = thermal stabilisation; K562 cells, 10 uM, 30 min; active = over 0.2 and 3.5 SD of the protein, either way, in both replicates (recomputed)
[1] = compound: CC1=C(C=C(C=C1)NC(=O)C2=CC(=CC=C2)C(C)(C)C#N)NC3=CC4=C(C=C3)N=CN(C4=O)C
Outline: (§1)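 Values are thermal stability changes relative to control samples and are taken from duplicates. They are stated as log2 fold changes. Before quantification by TMTpro 16plex LC-MS/MS with equalised channel sums, K562 cells at 2×10^6 cells/mL were treated with 10 μM compound for 30 min, heated in aliquots for 3 min across 48°C-58°C, pooled, extracted in PBS with 0.5% NP-40 at 4°C, and centrifuged at 21,000xg for 90 min to give the soluble supernatant.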

[2] = compound: CC1=C(C=C(C=C1)NC(=O)C2=CC(=CC=C2)N(C)C)NC(=O)C3=CC=C(C=C3)O
Outline: as §1

[3] = compound: CC1=CC=C(C=C1)SC2=C3C=C(SC3=CN=C2)C(=O)N
Outline: as §1

[4] = compound: CC1=NC(=CC=C1)C2=C(N=C(N2)C(C)(C)C)C3=CC4=NC=CN=C4C=C3
Outline: as §1

Nexturastat A = compound: CCCCN(Cc1ccc(C(=O)NO)cc1)C(=O)Nc1ccccc1 [Nexturastat A]
Outline: as §1

vemurafenib = compound: CCCS(=O)(=O)Nc1ccc(F)c(C(=O)c2c[nH]c3ncc(-c4ccc(Cl)cc4)cc23)c1F [vemurafenib]
Outline: as §1

[5] = compound: CCCS(=O)(=O)Nc1ccc(F)c(C(=O)c2c[nH]c3ncc(Cl)cc23)c1F
Outline: as §1

[6] = compound: CCCc1cc(C)[nH]c(=O)c1CNC(=O)c1cc(-c2ccnc(N3CCN(C)CC3)c2)cc2c1cnn2C(C)C
Outline: as §1

givinostat = compound: CCN(CC)Cc1ccc2cc(COC(=O)Nc3ccc(C(=O)NO)cc3)ccc2c1 [givinostat]
Outline: as §1

barasertib = compound: CCN(CCCOc1ccc2c(Nc3cc(CC(=O)Nc4cccc(F)c4)[nH]n3)ncnc2c1)CCOP(=O)(O)O [barasertib]
Outline: as §1

Measured: log2 fold change

FXR1 (UniProt P51114)
inactive: [1] 0.013 | [2] 0.031 | [3] -0.055 | [4] -0.294 | Nexturastat A 0.426 | vemurafenib 0.028 | [5] -0.014 | [6] 0.353 | givinostat 0.123 | barasertib 0.006

GALNT2 (UniProt Q10471)
inactive: [1] -0.003 | [2] -0.035 | [3] 0.016 | [4] 0.038 | Nexturastat A -0.032 | vemurafenib 0 | [5] 0.04 | [6] 0.03 | givinostat -0.005 | barasertib 0.011

GATAD2B (UniProt Q8WXI9)
inactive: [1] 0.072 | [2] -0.087 | [3] 0.077 | [4] 0.006 | Nexturastat A -0.017 | vemurafenib 0.013 | [5] 0.011 | [6] 0.016 | givinostat 0.036

GFER (UniProt P55789)
inactive: [1] 0.071 | [2] 0 | [3] 0.015 | [4] -0.07 | Nexturastat A 0.061 | vemurafenib 0.04 | [5] -0.017 | [6] -0.025 | givinostat -0.239 | barasertib 0.06

GAB2 (UniProt Q9UQC2)
inactive: [1] -0.053 | [2] -0.21 | [3] 0.022 | [4] 0.077 | Nexturastat A 0.075 | vemurafenib -0.071 | [5] -0.349 | [6] 0.099 | givinostat 0.101

GABARAPL2 (UniProt P60520)
inactive: [1] -0.01 | [2] 0.023 | [3] 0.067 | [4] 0.188 | Nexturastat A -0.122 | vemurafenib 0.026 | [5] 0.051 | [6] -0.03 | givinostat 0.03 | barasertib 0.007

GATA1 (UniProt P15976)
inactive: [1] -0.05 | [2] 0.02 | [3] -0.085 | [4] -0.029 | Nexturastat A -0.104 | vemurafenib -0.06 | [5] -0.035 | [6] -0.003 | givinostat -0.047 | barasertib -0.034

GALC (UniProt P54803)
inactive: [1] 0.002 | [2] -0.032 | [3] 0 | [4] -0.013 | Nexturastat A 0.012 | vemurafenib -0.03 | [5] -0.03 | [6] -0.049 | givinostat 0.036 | barasertib 0.002

Random excerpt: 2 records from the list.
GAB2 (UniProt Q9UQC2)
inactive: [1] -0.053 | [2] -0.21 | [3] 0.022 | [4] 0.077 | Nexturastat A 0.075 | vemurafenib -0.071 | [5] -0.349 | [6] 0.099 | givinostat 0.101

GFER (UniProt P55789)
inactive: [1] 0.071 | [2] 0 | [3] 0.015 | [4] -0.07 | Nexturastat A 0.061 | vemurafenib 0.04 | [5] -0.017 | [6] -0.025 | givinostat -0.239 | barasertib 0.06
